These results are taken from paper PMC10760247.

Sequences of proteins named here, by UniProt entry; tags and fusion partners are left off.
UniProt Q9WVA4: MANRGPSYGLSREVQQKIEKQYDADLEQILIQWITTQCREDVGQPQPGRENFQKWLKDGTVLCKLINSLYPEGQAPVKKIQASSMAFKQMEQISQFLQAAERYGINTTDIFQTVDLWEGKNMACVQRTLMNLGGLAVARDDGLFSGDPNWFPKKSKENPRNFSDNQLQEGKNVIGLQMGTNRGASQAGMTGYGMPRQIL

No constants are given. Whether binding was seen depends on the method and setting. In cells and extracts the contact can be indirect. These calls come from enrichment with a bait or labelling near it, and not all partners need be listed.

This assay has as its target T1, fatty-acid-binding protein 5 (FABP5) (mouse (endogenous in activated CD8+ T cells from C57BL/6J mice)) (UniProt Q05816).
T1 sequence: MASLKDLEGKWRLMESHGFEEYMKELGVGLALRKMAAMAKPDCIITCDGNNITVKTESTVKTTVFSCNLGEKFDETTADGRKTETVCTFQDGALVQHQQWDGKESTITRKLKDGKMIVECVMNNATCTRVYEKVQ
Briefly: affinity purification with mass spectrometry; lysate of activated mouse CD8+ T cells (Pierce IP Lysis Buffer), precleared with streptavidin Dynabeads; biotinylated goat anti-mouse FABP5 antibody or biotinylated goat IgG control overnight at 4°C, captured on Dynabeads MyOne Streptavidin T1; washed with PBS with 0.05% tween-20; eluted with 0.1M glycine HCl; LC-MS/MS.

Take “Transgelin 2 (TAGLN2) (from UniProt Q9WVA4 1-199)”: the binding result is on record as “binds”.
